# Results as given in the supplement of paper PMC6411743.
# Sequences of proteins named here, by UniProt entry; tags and fusion partners are left off. A change or cut given only in a name is not applied to a line headed by its entry.
# UniProt Q15633: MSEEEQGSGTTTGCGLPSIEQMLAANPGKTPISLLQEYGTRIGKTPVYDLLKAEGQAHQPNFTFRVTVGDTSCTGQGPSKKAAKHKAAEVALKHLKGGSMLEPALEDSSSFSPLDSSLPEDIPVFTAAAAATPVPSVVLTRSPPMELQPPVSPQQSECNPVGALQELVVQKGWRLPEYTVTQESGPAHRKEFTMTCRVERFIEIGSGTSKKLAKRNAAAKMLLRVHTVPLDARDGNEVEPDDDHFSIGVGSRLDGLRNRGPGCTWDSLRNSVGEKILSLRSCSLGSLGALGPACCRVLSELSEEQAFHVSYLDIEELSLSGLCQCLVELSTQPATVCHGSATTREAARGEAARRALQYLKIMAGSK
# UniProt Q9H5Z1: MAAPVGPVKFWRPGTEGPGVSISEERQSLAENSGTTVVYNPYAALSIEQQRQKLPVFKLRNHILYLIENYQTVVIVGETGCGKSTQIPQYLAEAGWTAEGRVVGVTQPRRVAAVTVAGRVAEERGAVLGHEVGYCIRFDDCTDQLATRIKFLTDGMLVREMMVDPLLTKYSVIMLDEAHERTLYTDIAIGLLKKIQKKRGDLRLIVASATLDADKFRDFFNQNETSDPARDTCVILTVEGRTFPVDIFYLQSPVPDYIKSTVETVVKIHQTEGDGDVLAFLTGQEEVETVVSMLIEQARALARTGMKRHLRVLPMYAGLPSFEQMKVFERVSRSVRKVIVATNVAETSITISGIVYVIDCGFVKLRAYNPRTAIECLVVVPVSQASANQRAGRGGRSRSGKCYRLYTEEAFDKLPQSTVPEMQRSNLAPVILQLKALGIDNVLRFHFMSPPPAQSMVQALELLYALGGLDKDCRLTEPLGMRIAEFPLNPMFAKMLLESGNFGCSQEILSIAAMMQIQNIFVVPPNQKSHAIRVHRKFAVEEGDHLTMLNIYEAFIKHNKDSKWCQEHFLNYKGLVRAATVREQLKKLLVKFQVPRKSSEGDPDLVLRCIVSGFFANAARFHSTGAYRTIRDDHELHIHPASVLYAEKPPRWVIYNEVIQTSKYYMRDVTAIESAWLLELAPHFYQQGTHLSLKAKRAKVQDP
# UniProt Q3B726, whole entry: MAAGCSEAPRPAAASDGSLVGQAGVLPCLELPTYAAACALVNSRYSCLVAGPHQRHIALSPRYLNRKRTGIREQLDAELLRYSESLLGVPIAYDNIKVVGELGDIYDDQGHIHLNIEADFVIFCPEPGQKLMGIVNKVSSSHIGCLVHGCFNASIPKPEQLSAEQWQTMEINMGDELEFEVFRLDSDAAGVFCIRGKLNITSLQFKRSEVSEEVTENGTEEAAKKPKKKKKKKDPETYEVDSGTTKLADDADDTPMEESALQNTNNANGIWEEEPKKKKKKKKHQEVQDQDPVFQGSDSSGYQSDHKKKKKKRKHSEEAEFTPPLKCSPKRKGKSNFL
# UniProt Q53ET0: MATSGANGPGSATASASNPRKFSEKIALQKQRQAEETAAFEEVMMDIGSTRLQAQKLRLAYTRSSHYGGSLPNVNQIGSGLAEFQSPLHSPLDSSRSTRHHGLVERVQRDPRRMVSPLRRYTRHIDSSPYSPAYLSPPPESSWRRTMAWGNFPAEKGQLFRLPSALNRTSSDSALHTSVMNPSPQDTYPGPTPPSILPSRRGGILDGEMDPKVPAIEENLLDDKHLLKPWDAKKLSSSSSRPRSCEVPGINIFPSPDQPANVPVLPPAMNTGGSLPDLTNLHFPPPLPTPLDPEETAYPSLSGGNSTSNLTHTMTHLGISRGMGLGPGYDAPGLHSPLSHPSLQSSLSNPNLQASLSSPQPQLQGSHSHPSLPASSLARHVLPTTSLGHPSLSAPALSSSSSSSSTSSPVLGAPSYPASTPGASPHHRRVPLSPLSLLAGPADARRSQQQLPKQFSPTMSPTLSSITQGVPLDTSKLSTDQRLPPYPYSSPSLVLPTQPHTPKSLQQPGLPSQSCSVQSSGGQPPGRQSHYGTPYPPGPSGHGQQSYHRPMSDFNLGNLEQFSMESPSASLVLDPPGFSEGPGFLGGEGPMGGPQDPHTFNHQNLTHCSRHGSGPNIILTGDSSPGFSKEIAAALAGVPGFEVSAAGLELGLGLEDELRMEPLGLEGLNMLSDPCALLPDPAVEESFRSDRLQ
# UniProt Q15819: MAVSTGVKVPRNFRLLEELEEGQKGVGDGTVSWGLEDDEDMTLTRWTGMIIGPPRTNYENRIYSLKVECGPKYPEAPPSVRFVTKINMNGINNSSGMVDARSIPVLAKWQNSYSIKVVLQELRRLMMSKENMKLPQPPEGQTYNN
# UniProt Q9H6K1: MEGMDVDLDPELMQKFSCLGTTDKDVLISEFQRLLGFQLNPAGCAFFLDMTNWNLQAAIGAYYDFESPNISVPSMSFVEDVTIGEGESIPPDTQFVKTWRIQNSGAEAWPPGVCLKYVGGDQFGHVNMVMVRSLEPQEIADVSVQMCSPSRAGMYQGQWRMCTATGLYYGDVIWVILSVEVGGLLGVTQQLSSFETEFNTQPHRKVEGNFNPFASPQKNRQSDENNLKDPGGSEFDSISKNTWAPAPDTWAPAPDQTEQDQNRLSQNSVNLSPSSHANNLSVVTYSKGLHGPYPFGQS
# UniProt Q5T3F8: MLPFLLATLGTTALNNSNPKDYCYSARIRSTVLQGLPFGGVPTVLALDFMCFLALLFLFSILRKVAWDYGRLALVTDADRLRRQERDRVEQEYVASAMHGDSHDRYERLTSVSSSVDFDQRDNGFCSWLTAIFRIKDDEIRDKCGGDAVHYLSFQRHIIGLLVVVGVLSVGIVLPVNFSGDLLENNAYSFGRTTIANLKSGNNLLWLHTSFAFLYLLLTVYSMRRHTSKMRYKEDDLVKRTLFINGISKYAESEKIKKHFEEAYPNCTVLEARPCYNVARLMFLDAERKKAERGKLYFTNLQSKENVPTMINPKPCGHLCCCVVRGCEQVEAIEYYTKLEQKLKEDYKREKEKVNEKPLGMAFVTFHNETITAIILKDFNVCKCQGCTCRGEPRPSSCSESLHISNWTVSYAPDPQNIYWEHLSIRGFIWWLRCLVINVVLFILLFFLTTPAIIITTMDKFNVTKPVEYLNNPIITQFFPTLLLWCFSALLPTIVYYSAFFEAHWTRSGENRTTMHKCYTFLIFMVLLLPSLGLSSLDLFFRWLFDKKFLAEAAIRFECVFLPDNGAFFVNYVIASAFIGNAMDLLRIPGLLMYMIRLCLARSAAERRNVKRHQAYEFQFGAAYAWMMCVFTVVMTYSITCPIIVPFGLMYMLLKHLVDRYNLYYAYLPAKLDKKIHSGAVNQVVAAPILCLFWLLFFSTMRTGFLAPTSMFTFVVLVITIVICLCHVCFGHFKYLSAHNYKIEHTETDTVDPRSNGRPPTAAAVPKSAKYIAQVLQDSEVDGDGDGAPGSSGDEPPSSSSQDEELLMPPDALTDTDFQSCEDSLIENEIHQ
# UniProt Q16611: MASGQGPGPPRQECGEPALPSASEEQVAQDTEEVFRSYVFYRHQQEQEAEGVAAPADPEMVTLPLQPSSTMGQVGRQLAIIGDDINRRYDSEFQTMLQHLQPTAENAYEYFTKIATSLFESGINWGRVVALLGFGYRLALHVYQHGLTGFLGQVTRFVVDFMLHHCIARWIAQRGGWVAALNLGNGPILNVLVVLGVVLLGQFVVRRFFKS
# UniProt Q9Y6H1: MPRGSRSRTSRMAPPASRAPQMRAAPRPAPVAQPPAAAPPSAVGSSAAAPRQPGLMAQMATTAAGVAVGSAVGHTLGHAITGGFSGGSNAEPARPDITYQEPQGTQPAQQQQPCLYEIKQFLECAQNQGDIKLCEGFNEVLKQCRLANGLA
# UniProt Q4VC31: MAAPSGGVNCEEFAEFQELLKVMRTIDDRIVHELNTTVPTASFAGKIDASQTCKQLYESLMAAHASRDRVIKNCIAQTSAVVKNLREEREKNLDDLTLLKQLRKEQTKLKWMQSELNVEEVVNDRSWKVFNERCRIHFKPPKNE
# UniProt Q5JTV8: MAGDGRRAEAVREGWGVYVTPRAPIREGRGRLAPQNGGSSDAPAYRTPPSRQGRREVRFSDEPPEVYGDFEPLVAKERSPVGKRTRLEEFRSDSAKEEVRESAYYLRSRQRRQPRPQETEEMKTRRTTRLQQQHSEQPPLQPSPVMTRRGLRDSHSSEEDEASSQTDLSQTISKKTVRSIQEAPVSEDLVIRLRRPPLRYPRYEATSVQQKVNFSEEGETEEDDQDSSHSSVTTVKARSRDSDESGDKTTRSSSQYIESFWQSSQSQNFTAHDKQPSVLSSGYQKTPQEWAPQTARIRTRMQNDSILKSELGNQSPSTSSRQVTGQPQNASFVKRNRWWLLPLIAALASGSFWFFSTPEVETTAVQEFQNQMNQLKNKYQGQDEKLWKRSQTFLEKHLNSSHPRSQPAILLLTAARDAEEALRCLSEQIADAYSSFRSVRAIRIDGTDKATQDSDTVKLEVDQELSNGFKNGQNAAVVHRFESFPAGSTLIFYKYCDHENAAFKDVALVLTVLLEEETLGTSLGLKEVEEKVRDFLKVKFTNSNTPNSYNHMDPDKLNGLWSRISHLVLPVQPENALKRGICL
# UniProt Q92530: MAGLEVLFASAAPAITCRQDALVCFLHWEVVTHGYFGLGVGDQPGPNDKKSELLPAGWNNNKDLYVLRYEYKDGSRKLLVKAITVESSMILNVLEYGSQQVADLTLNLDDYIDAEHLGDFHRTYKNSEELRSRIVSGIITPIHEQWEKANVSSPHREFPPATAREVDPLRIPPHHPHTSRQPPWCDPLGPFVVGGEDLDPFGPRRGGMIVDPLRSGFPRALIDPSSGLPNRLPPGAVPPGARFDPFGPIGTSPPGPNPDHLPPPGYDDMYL
# UniProt Q92598: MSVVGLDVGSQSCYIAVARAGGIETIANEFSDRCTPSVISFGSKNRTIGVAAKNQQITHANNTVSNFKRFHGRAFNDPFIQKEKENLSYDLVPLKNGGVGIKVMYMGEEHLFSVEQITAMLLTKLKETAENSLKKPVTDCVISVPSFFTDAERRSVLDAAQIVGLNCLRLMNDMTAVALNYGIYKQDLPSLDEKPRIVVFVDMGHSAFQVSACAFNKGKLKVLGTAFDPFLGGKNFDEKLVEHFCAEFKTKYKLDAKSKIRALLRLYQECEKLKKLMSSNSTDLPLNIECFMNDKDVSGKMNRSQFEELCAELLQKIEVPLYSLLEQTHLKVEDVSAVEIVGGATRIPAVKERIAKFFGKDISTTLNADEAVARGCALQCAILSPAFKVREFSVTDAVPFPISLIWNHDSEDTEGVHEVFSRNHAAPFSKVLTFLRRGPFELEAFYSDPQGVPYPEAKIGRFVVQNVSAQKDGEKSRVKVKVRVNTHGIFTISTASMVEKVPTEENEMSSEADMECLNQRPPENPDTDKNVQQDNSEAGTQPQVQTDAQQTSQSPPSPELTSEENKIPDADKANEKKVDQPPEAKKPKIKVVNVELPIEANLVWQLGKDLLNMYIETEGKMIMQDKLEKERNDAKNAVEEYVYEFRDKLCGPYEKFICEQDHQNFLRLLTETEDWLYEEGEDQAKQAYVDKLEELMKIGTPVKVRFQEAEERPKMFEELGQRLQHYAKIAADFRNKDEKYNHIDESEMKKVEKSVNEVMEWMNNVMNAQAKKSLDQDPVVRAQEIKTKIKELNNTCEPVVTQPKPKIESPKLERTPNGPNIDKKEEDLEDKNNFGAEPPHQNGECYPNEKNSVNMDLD
# UniProt Q15172: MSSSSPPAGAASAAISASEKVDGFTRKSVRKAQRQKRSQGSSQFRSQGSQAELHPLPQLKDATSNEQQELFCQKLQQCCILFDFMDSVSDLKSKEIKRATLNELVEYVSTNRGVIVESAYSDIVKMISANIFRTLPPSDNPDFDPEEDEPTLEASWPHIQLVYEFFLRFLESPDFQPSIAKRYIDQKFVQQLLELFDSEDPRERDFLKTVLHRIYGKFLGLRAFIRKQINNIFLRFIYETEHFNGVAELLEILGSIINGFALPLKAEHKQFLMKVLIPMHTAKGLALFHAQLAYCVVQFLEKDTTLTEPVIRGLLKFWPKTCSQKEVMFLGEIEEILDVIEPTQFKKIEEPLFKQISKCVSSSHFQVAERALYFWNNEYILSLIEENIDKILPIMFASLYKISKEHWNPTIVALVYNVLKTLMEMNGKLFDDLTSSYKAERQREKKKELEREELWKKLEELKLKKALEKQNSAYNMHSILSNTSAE
# UniProt Q53QZ3: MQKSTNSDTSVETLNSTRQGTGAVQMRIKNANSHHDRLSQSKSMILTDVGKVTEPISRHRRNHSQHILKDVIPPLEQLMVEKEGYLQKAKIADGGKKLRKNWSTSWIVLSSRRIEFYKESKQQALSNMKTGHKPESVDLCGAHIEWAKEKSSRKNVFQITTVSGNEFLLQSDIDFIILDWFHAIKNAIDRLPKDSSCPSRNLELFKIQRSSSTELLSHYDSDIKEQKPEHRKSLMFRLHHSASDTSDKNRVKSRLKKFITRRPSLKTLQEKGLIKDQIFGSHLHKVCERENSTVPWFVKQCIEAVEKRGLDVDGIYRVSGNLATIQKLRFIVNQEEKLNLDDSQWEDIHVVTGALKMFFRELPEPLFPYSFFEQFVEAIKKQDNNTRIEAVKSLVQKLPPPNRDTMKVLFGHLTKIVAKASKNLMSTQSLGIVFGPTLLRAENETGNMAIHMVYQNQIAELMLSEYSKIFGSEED
# ± gives the standard deviation of the averaged measurements. The list shows a part of the results, in another mix than the full data.
# Compound: Nc1ncnc2c1ncn2[C@@H]1O[C@H](COP(=O)(O)OP(=O)(O)NP(=O)(O)O)[C@@H](O)[C@H]1O [adenylyl imidodiphosphate]
# Assay: NP40-soluble protein abundance relative to vehicle (solubility fold change) (ratio); higher = more soluble protein in presence of AMP-PNP
# Outline: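 Crude Jurkat lysate, prepared by Dounce homogenisation, was exposed to eight concentrations from 0.1 to 10 mM for 10 min at room temperature and then 3 min at 37 °C. Solubilisation used 0.8% NP40 with benzonase for 60 min at 4 °C, followed by ultracentrifugation and TMT labelling of the supernatant for LC-MS/MS. After vsn normalisation of intensities, each value is the fold change against the detergent-processed vehicle within each replicate, across three independent experiments.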
Target,NP40-soluble protein abundance (concentration: 1mM),NP40-soluble protein abundance (concentration: 2mM),NP40-soluble protein abundance (concentration: 4mM),NP40-soluble protein abundance (concentration: 6mM),NP40-soluble protein abundance (concentration: 8mM),NP40-soluble protein abundance (concentration: 10mM)
UniProt Q15633 and related entries,0.963 ± 0.015,0.964 ± 0.024,0.995 ± 0.019,0.984 ± 0.049,0.977 ± 0.044,0.979 ± 0.064
UniProt Q4G0J3 and related entries,1.02 ± 0.055,1.07 ± 0.025,1.13 ± 0.044,1.18 ± 0.052,1.16 ± 0.033,1.29 ± 0.038
Q5THR1 and related entries (UniProt Q9H5Z1),1.02 ± 0.061,0.96808 ± 0.00094,1.01 ± 0.011,0.987 ± 0.024,0.991 ± 0.022,0.997 ± 0.023
SF3B3 (UniProt Q15393),0.961 ± 0.036,0.899 ± 0.077,0.978 ± 0.058,1.06 ± 0.026,1.1 ± 0.029,1.07 ± 0.083
UniProt Q3B7T1 and related entries,1.01 ± 0.01,0.986 ± 0.016,0.988 ± 0.039,0.981 ± 0.046,1.009 ± 0.0097,0.988 ± 0.044
GRIPAP1 (UniProt Q4V328),1.02 ± 0.013,1.08 ± 0.091,1.03 ± 0.037,0.985 ± 0.015,0.962 ± 0.021,0.976 ± 0.058
TWISTNB (UniProt Q3B726),0.975 ± 0.02,0.999 ± 0.022,1 ± 0.022,1.02 ± 0.055,1.06 ± 0.034,1.05 ± 0.072
CRTC2 (UniProt Q53ET0),1 ± 0.015,1.04 ± 0.047,0.995 ± 0.025,0.959 ± 0.022,0.992 ± 0.025,0.978 ± 0.021
UBE2V2 (UniProt Q15819),0.9835 ± 0.008,1.01 ± 0.038,0.994 ± 0.023,1.01 ± 0.059,1.01 ± 0.031,0.988 ± 0.032
ADRM1 (UniProt Q16186),0.927 ± 0.069,0.962 ± 0.094,0.88 ± 0.1,0.876 ± 0.12,0.89 ± 0.12,0.891 ± 0.18
Q5TH58 and related entries (UniProt Q9H6K1),0.998 ± 0.02,1.03 ± 0.039,0.9959 ± 0.0093,1.006 ± 0.0065,0.974 ± 0.0093,0.989 ± 0.019
UniProt Q5T3F8 and related entries,1 ± 0.052,1.06 ± 0.1,1.01 ± 0.038,1.01 ± 0.019,0.985 ± 0.042,1.01 ± 0.049
UniProt Q16611 and related entries,0.994 ± 0.035,0.952 ± 0.016,0.985 ± 0.043,0.96 ± 0.023,0.974 ± 0.032,0.932 ± 0.026
UniProt Q2KHT3 and related entries,0.915 ± 0.035,0.878 ± 0.035,0.842 ± 0.062,0.89 ± 0.1,0.812 ± 0.079,0.816 ± 0.11
UniProt Q16854 and related entries,0.968 ± 0.044,0.883 ± 0.072,0.951 ± 0.039,0.8878 ± 0.0088,0.939 ± 0.022,0.88 ± 0.026
UniProt Q3ZCQ8 and related entries,0.987 ± 0.032,0.967 ± 0.042,0.937 ± 0.043,0.958 ± 0.019,0.944 ± 0.044,0.946 ± 0.067
Q5T1J5 and related entries (UniProt Q9Y6H1+Q5T1J5),1.03 ± 0.013,1.04 ± 0.097,1.02 ± 0.033,0.929 ± 0.031,0.966 ± 0.014,0.946 ± 0.015
CCDC58 (UniProt Q4VC31),1.01 ± 0.029,1.02 ± 0.037,0.987 ± 0.048,0.976 ± 0.039,0.965 ± 0.051,0.945 ± 0.066
Q15392 and related entries (UniProt Q3LIE7+Q15392),0.954 ± 0.039,0.837 ± 0.13,0.961 ± 0.1,1.03 ± 0.037,1.08 ± 0.078,0.984 ± 0.086
UniProt Q5JTV8 and related entries,0.964 ± 0.013,1.02 ± 0.044,0.9623 ± 0.0028,0.9942 ± 0.0063,0.973 ± 0.013,0.983 ± 0.031
UniProt Q2TBE0 and related entries,1.06 ± 0.036,1.09 ± 0.03,1.11 ± 0.046,1.1 ± 0.049,1.1 ± 0.033,1.15 ± 0.049
RIF1 (UniProt Q5UIP0),1.02 ± 0.022,1.06 ± 0.058,1.04 ± 0.034,1.05 ± 0.063,1.03 ± 0.084,1.08 ± 0.094
Q5QPM7 and related entries (UniProt Q92530),1.01 ± 0.049,1.06 ± 0.074,1.04 ± 0.049,1 ± 0.029,1.01 ± 0.05,1.02 ± 0.042
UniProt Q15435 and related entries,0.985 ± 0.05,0.98 ± 0.039,0.968 ± 0.035,1.01 ± 0.038,1 ± 0.017,0.976 ± 0.042
UniProt Q5SRE5 and related entries,0.996 ± 0.044,1.02 ± 0.026,1.05 ± 0.046,1.03 ± 0.056,1.11 ± 0.042,1.22 ± 0.087
UniProt Q5TKA1 and related entries,0.9726 ± 0.0082,1.03 ± 0.015,1.02 ± 0.047,0.9854 ± 0.0069,0.979 ± 0.019,0.984 ± 0.039
Q5TBM3 and related entries (UniProt Q92598),1.011 ± 0.0094,1.04 ± 0.034,1 ± 0.025,1.03 ± 0.017,0.985 ± 0.028,1.02 ± 0.041
PPP2R5A (UniProt Q15172),1 ± 0.035,0.995 ± 0.0064,1.02 ± 0.037,0.962 ± 0.017,0.973 ± 0.033,0.97 ± 0.016
MAPKAPK3 (UniProt Q16644),1.01 ± 0.015,1.02 ± 0.07,0.972 ± 0.037,1.03 ± 0.033,0.992 ± 0.034,1.03 ± 0.022
ARHGAP15 (UniProt Q53QZ3),1.01 ± 0.043,1.013 ± 0.01,1.04 ± 0.039,1.04 ± 0.028,1.05 ± 0.037,1.052 ± 0.0088

# Eight neighbouring records already listed, quoted:
Target,NP40-soluble protein abundance (concentration: 1mM),NP40-soluble protein abundance (concentration: 2mM),NP40-soluble protein abundance (concentration: 4mM),NP40-soluble protein abundance (concentration: 6mM),NP40-soluble protein abundance (concentration: 8mM),NP40-soluble protein abundance (concentration: 10mM)
Q5THR1 and related entries (UniProt Q9H5Z1),1.02 ± 0.061,0.96808 ± 0.00094,1.01 ± 0.011,0.987 ± 0.024,0.991 ± 0.022,0.997 ± 0.023
SF3B3 (UniProt Q15393),0.961 ± 0.036,0.899 ± 0.077,0.978 ± 0.058,1.06 ± 0.026,1.1 ± 0.029,1.07 ± 0.083
UniProt Q3B7T1 and related entries,1.01 ± 0.01,0.986 ± 0.016,0.988 ± 0.039,0.981 ± 0.046,1.009 ± 0.0097,0.988 ± 0.044
GRIPAP1 (UniProt Q4V328),1.02 ± 0.013,1.08 ± 0.091,1.03 ± 0.037,0.985 ± 0.015,0.962 ± 0.021,0.976 ± 0.058
TWISTNB (UniProt Q3B726),0.975 ± 0.02,0.999 ± 0.022,1 ± 0.022,1.02 ± 0.055,1.06 ± 0.034,1.05 ± 0.072
CRTC2 (UniProt Q53ET0),1 ± 0.015,1.04 ± 0.047,0.995 ± 0.025,0.959 ± 0.022,0.992 ± 0.025,0.978 ± 0.021
UBE2V2 (UniProt Q15819),0.9835 ± 0.008,1.01 ± 0.038,0.994 ± 0.023,1.01 ± 0.059,1.01 ± 0.031,0.988 ± 0.032
ADRM1 (UniProt Q16186),0.927 ± 0.069,0.962 ± 0.094,0.88 ± 0.1,0.876 ± 0.12,0.89 ± 0.12,0.891 ± 0.18
